PubChem BioAssay AID504764 – Drosophila RNAi Screening Center | 2011
In all, the deposit lists about 22,000 reagents; shown is an unselected part of those with a known target gene and a result. Of all reagents, 403 (1.9%) were called active. 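Unnormalised raw counts per well; ratio z-scores behind the hit calls and whether each hit raises or lowers signal are not deposited.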 Names joined by + are all predicted targets of the reagent. The record does not give: the amount of reagent.

Test: 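Knock-downs that raise or lower a Notch target reporter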 (primary screen)
System: Drosophila Kc167 cells
Reagent: long dsRNA against Drosophila genes
Duration: about 5 days (4 days dsRNA, then 24 h after transfection)
Treatment: transfection of constitutively active membrane-tethered Notch lacking the extracellular domain, read 24 h later
Measurement: 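Light from a Notch-responsive E(spl)m3 luciferase reporter under active Notch, with control-promoter and no-Notch reporter wells to normalise; raw counts from paired wells a and b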
Reading the numbers: induced reporter light, run 1, well a and induced reporter light, run 1, well b: higher = more light from the Notch target reporter with active Notch; control promoter light, run 1, well a and control promoter light, run 1, well b: higher = more light from the viral control promoter (cell number, transfection, viability); uninduced reporter light, run 1, well a: higher = more light from the Notch target reporter without active Notch
Active means: 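Wells with low control signal or poorly matching duplicates excluded; duplicates averaged; per source plate, z beyond ±2 for induced/control log2 ratio or beyond ±1.8 for induced/uninduced marks a hit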
Calls: active = modifier hit (raised or lowered Notch signal); inactive = not a hit

| target gene | amplicon | induced reporter light, run 1, well a | induced reporter light, run 1, well b | control promoter light, run 1, well a | control promoter light, run 1, well b | uninduced reporter light, run 1, well a | activity call |
| --- | --- | --- | --- | --- | --- | --- | --- |
| CG12842 (retired record) | DRSC06188 | 1.64e5 | 1.62e5 | 1.94e5 | 2.08e5 | 14478 | inactive |
| Obp58c (Odorant-binding protein 58c) | DRSC04166 | 1.83e5 | 1.68e5 | 1.46e5 | 1.40e5 | 13780 | inactive |
| Sod1 (Superoxide dismutase 1) | DRSC11286 | 1.29e5 | 1.18e5 | 1.60e5 | 1.33e5 | 8428 | inactive |
| psd (palisade) | DRSC03131 | 88710 | 63680 | 1.02e5 | 85875 | 5232 | inactive |
| Rab21 | DRSC20968 | 1.37e5 | 1.44e5 | 1.48e5 | 1.93e5 | 11975 | inactive |
| ihog (interference hedgehog) | DRSC03157 | 1.83e5 | 1.83e5 | 1.90e5 | 1.89e5 | 19940 | inactive |
| CG11811 | DRSC09862 | 1.92e5 | 1.73e5 | 3.48e5 | 2.74e5 | 9790 | inactive |
| Polr1A (RNA polymerase I subunit A) | DRSC07535 | 1.23e5 | 91575 | 91715 | 70645 | 5900 | active |
| iav (inactive) | DRSC18363 | 83820 | 82800 | 1.69e5 | 1.41e5 | 8992 | inactive |
| Phf7 (PHD finger protein 7) | DRSC20692 | 1.40e5 | 1.42e5 | 1.28e5 | 87455 | 12330 | inactive |
| CG5255 | DRSC15754 | 2.00e5 | 1.88e5 | 1.69e5 | 1.83e5 | 13925 | inactive |
| garz (gartenzwerg) | DRSC07193 | 80560 | 70760 | 1.19e5 | 93785 | 6200 | inactive |
| CG1635 | DRSC15131 | 1.95e5 | 2.44e5 | 2.66e5 | 2.24e5 | 14840 | inactive |
| Ppcs (Phosphopantothenoylcysteine synthetase) | DRSC14127 | 1.57e5 | 1.71e5 | 2.48e5 | 2.37e5 | 15840 | inactive |
| dbf (doublefault) | DRSC02570 | 1.54e5 | 1.78e5 | 92260 | 1.15e5 | 21055 | inactive |
| Kul (Kuzbanian-like) | DRSC15404 | 1.28e5 | 1.18e5 | 1.59e5 | 1.71e5 | 10785 | inactive |
| ida (imaginal discs arrested) | DRSC08163 | 1.23e5 | 1.04e5 | 1.98e5 | 1.52e5 | 7810 | inactive |
| CG11141 | DRSC06048 | 51595 | 52250 | 45645 | 44090 | 3575 | inactive |
| CG8300 | DRSC18426 | 75750 | 83815 | 41355 | 48010 | 12720 | inactive |
| dgt6 (dim gamma-tubulin 6) | DRSC14424 | 1.37e5 | 1.75e5 | 2.09e5 | 2.02e5 | 11680 | inactive |

Looked up above.
Value of Phf7 (PHD finger protein 7) [DRSC20692] under “uninduced reporter light, run 1, well a”: 12330
garz (gartenzwerg) [DRSC07193], activity call: inactive
CG1635 [DRSC15131], control promoter light, run 1, well a → 2.66e5
ida (imaginal discs arrested) [DRSC08163], activity call → inactive
CG11141 [DRSC06048], activity call: inactive
Ppcs (Phosphopantothenoylcysteine synthetase) [DRSC14127], uninduced reporter light, run 1, well a → 15840

The results go on:
| target gene | amplicon | induced reporter light, run 1, well a | induced reporter light, run 1, well b | control promoter light, run 1, well a | control promoter light, run 1, well b | uninduced reporter light, run 1, well a | activity call |
| --- | --- | --- | --- | --- | --- | --- | --- |
| hog | DRSC19057 | 1.02e5 | 1.10e5 | 1.09e5 | 1.09e5 | 9790 | inactive |
| CG4374 | DRSC15570 | 1.86e5 | 2.04e5 | 2.11e5 | 2.25e5 | 13750 | inactive |
| CG31446 | DRSC13111 | 1.06e5 | 92510 | 1.47e5 | 1.29e5 | 7960 | inactive |
| CG11248 | DRSC11644 | 1.00e5 | 1.22e5 | 63605 | 91400 | 10000 | inactive |
| CG5746 | DRSC15868 | 1.72e5 | 1.50e5 | 2.14e5 | 2.35e5 | 14070 | inactive |
| CG43897 | DRSC10965 | 7650 | 6620 | 10535 | 8850 | 2745 | inactive |
| CG43897 | DRSC10967 | 1.48e5 | 1.21e5 | 2.21e5 | 1.96e5 | 8490 | inactive |
| CG43897 | DRSC21583 | – | – | – | – | – | inactive |
| CG17048 | DRSC06649 | 1.24e5 | 1.35e5 | 1.72e5 | 1.86e5 | 10465 | inactive |
| CG12689 | DRSC17879 | 1.43e5 | 1.60e5 | 2.47e5 | 2.98e5 | 10645 | inactive |
| fred (friend of echinoid) | DRSC00349 | 2.15e5 | 1.72e5 | 2.06e5 | 1.99e5 | 13880 | inactive |
| fred (friend of echinoid) | DRSC00599 | 1.61e5 | 1.41e5 | 2.10e5 | 1.94e5 | 10155 | inactive |
| fred (friend of echinoid) | DRSC00601 | 1.40e5 | 1.25e5 | 1.59e5 | 1.35e5 | 6365 | inactive |
| fred (friend of echinoid) | DRSC00602 | 96465 | 79285 | 95620 | 74885 | 6760 | inactive |
| Tm1 (Tropomyosin 1) | DRSC13082 | 1.48e5 | 1.12e5 | 1.64e5 | 1.76e5 | 10988 | inactive |
| Tm1 (Tropomyosin 1) | DRSC13083 | 1.39e5 | 1.26e5 | 1.63e5 | 2.01e5 | 10360 | inactive |
| Tm1 (Tropomyosin 1) | DRSC16886 | 1.03e5 | 1.06e5 | 89160 | 85745 | 9445 | inactive |
| Fancm (Fanconi anemia group M helicase) | DRSC16348 | 1.09e5 | 1.83e5 | 2.15e5 | 2.67e5 | 12625 | inactive |
| CG11584 | DRSC19408 | 1.07e5 | 1.01e5 | 1.14e5 | 1.05e5 | 15055 | inactive |
| CG7907 | DRSC16339 | 2.18e5 | 1.58e5 | 2.06e5 | 2.34e5 | 11935 | inactive |
| PCNA (Proliferating cell nuclear antigen) | DRSC07653 | 44330 | 64825 | 73755 | 88985 | 5010 | inactive |
| CG42397 | DRSC09147 | 1.86e5 | 2.19e5 | 2.08e5 | 1.95e5 | 11585 | inactive |
| Max | DRSC11218 | 1.02e5 | 1.01e5 | 60900 | 66110 | 7525 | inactive |
| lectin-30A | DRSC02560 | 1.07e5 | 1.26e5 | 68780 | 1.07e5 | 16725 | inactive |
| sordd2 + sordd1 | DRSC20136 | 1.66e5 | 1.62e5 | 2.02e5 | 2.08e5 | 11015 | inactive |
| CG18262 | DRSC18149 | 1.49e5 | 1.49e5 | 3.59e5 | 3.79e5 | 12965 | active |
| row (relative of woc) | DRSC07076 | 55175 | 80395 | 1.28e5 | 2.46e5 | 8145 | active |
| row (relative of woc) | DRSC07077 | 1.06e5 | 1.06e5 | 1.63e5 | 1.24e5 | 7705 | inactive |
| RpL18 (Ribosomal protein L18) | DRSC11016 | 2.13e5 | 1.81e5 | 2.51e5 | 1.87e5 | 10005 | inactive |
| CG13751 | DRSC06422 | 1.96e5 | 2.22e5 | 2.27e5 | 2.45e5 | 19355 | inactive |
